According to patent publication US20150152101A1, “ACTIVE COMPOUNDS FOR COMBATING GREASY SKIN” (L'OREAL, priority 2012, published 2015):
At least one structure is not confirmed: it was looked up by name or label, or the drawing left a doubt.

System: Ki67
Experiment: Ki67 immunolabelling of treated Episkin reconstructed epidermis
Assay type: cell-based
Details: systemic treatment over 5 days, grade relative to reference, generally for the highest concentration used (tested 1 and 10 μM)
Protocol: The samples of reconstructed epidermis, received from the company Episkin at six days of reconstruction, were recultured as soon as received in 3.5 ml of differentiation medium (Episkin™ medium) under insert (in immersion) for 48 hours in an incubator (37° C., 5% CO2).
The epidermis samples were then placed in contact with the test compounds systemically. The Episkin™ differentiation culture medium is changed for a differentiation medium containing the test compounds with 0.1% of final DMSO vehicle. The epidermis samples were recultured in an incubator for 48 hours. A new systemic treatment is performed for a further 72 hours of culture in the incubator.
For the treatment on Episkin™, each test compound was prepared extemporaneously by weighing out and dissolving at 10 mM in DMSO, and was then used to treat 3 samples of reconstructed epidermis. […] The positive controls used were vitamin D3, retinol and calcipotriol (a vitamin D3 analogue).
The epidermis samples were collected (3 epidermis samples per treatment) for histological analysis and protein extracts (the same reconstructed epidermis is used for the histological study and the protein extract).
The epidermis samples were included in OCT for freezing in liquid nitrogen and then stored at −80° C. […]

## C=C1CC[C@H](O)C/C1=C/C=C1\CCC[C@]2(C)[C@@H]([C@H](C)CCCC(C)C)CC[C@@H]12 [Vitamin D3]
  Ki67: 0/−
